PubChem BioAssay AID1159584 – Peter MacCallum Cancer Centre, 2016

Test: 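Knock-downs that harm CDH1-null cells more than parental MCF10A cells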 (primary screen)
Cell system: human MCF10A breast epithelial cells, parental and CDH1-null
Reagent: siRNA against human genes
Detection: 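Cell viability by CellTiter-Glo ATP luminescence, each line scaled to the mean of mock wells across plates, then CDH1-null over parental ratio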
Reading the numbers: CDH1-null / parental viability ratio: higher = CDH1-null cells survive relatively better than parental; CDH1-null viability vs mock: higher = more viable CDH1-null cells; parental viability vs mock: higher = more viable parental cells
This is a random part of about 18,000 deposited reagents. Not given: the amount of reagent, the time to read-out.

gene symbol	CDH1-null / parental viability ratio	CDH1-null viability vs mock (fraction of mock)	parental viability vs mock (fraction of mock)
POLR3F (RNA polymerase III subunit F)	0.87	0.45	0.52
MAPKAP1 (MAPK associated protein 1)	0.98	0.91	0.93
HTRA4 (HtrA serine peptidase 4)	1.06	0.82	0.77
PRDM10 (PR/SET domain 10)	0.89	0.62	0.7
FCGR1A (Fc gamma receptor Ia)	1.06	0.91	0.86
LCE2D (late cornified envelope 2D)	1	0.88	0.88
ZNF436-AS1 (ZNF436 antisense RNA 1)	0.82	0.86	1.05
SHPRH (SNF2 histone linker PHD RING helicase)	0.88	0.83	0.94
LAPTM4B (lysosomal protein transmembrane 4 beta)	1	0.66	0.66
ABCA10 (ATP binding cassette subfamily A member 10)	1.1	1.12	1.02
ASXL1 (ASXL transcriptional regulator 1)	0.92	0.73	0.79
SCMH1 (Scm polycomb group protein homolog 1)	1.07	1.07	1
CACNG8 (calcium voltage-gated channel auxiliary subunit gamma 8)	1.2	0.9	0.75
ZC2HC1C (zinc finger C2HC-type containing 1C)	1.08	1.08	1
DMGDH (dimethylglycine dehydrogenase)	1.16	0.94	0.81
CYTH3 (cytohesin 3)	0.76	0.64	0.84
TAS2R3 (taste 2 receptor member 3)	1.2	1.09	0.91
TRIM68 (tripartite motif containing 68)	0.7	0.46	0.66
SEPTIN4 (septin 4)	1.03	0.94	0.91
POU6F2 (POU class 6 homeobox 2)	1.09	0.86	0.79
ZSCAN10 (zinc finger and SCAN domain containing 10)	1.07	0.58	0.54
CLEC3A (C-type lectin domain family 3 member A)	1.04	0.58	0.56
ZNF117 (zinc finger protein 117)	1.13	0.54	0.48
PARD6A (par-6 family cell polarity regulator alpha)	1.1	0.92	0.84
CDH16 (cadherin 16)	0.86	0.57	0.66
WDR83 (WD repeat domain 83)	1.27	0.38	0.3
CRYAB (crystallin alpha B)	0.76	0.55	0.72
TMEM230 (transmembrane protein 230)	1	0.81	0.81
ART1 (ADP-ribosyltransferase 1)	1.31	0.94	0.72
KYNU (kynureninase)	1.13	1.04	0.92
PTAFR (platelet activating factor receptor)	1.45	0.9	0.62
SLC39A14	1.08	0.9	0.83
LRRC61 (leucine rich repeat containing 61)	1.08	0.41	0.38
CENPM (centromere protein M)	1.24	0.67	0.54
FOS (Fos proto-oncogene, AP-1 transcription factor subunit)	0.94	0.78	0.83
IFT20 (intraflagellar transport 20)	1.01	0.86	0.85
TMSB10 (thymosin beta 10)	0.86	0.62	0.72
PTGDR2 (prostaglandin D2 receptor 2)	0.75	0.86	1.14
TMEM17 (transmembrane protein 17)	0.87	0.7	0.8
TAFA1 (TAFA chemokine like family member 1)	0.96	1	1.04
LPAR1 (lysophosphatidic acid receptor 1)	1.58	1.04	0.66
TAF10 (TATA-box binding protein associated factor 10)	0.86	0.76	0.88
N4BP3 (NEDD4 binding protein 3)	1.19	0.74	0.62
RNASE8 (ribonuclease A family member 8)	0.97	0.99	1.02
PROSER2 (proline and serine rich 2)	1.23	0.96	0.78
MED29 (mediator complex subunit 29)	0.67	0.72	1.08

4 entries from above, limited to “parental viability vs mock (fraction of mock)”:
TAS2R3 (taste 2 receptor member 3)	0.91
TRIM68 (tripartite motif containing 68)	0.66
SEPTIN4 (septin 4)	0.91
POU6F2 (POU class 6 homeobox 2)	0.79
